Measured values published in article PMC11300487, “C-phycocyanin reinforces autophagy to block pulmonary fibrogenesis by inhibiting lncIAPF biogenesis” (Archives of Pharmacal Research, 2024).
Results are given in words; binding and its absence hold for the method and conditions named. In cells and extracts the contact can be indirect. Some binding calls cover weakened binding; strength is not graded here.

Protein sequences, listed by entry. Tags and fused reporters are not part of them.
UniProt P84022: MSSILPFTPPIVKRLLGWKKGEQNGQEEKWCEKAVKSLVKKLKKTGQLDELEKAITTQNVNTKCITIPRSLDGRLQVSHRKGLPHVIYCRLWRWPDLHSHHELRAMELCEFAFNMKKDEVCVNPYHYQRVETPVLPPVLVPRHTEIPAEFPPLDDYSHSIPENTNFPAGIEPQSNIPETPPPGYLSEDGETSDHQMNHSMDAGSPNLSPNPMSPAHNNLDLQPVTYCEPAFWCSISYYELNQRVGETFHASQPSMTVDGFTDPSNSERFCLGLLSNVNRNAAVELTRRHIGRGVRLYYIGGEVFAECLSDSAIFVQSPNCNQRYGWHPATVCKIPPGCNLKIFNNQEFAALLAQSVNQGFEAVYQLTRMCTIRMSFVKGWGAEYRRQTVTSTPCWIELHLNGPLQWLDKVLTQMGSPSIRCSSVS

Biological target: T1, activating transcription factor 3 (human (endogenous in MRC-5)) (UniProt P18847)
T1 sequence: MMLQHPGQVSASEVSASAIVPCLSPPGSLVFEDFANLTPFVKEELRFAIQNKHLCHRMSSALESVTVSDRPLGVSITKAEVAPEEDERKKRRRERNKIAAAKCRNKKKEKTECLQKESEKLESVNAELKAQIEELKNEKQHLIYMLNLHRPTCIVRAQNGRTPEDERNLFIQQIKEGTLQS
Test: co-IP; MRC-5 cell lysate precipitated with rabbit anti-ATF3 (rabbit IgG as control) and Protein A/G, 4 °C overnight; cells treated with TGFβ1 or TGFβ1 and C-PC

binding: binds
Substance: transcription factor Smad3 (from UniProt P84022 1-425)
